Values from PubChem BioAssay AID1259254 (NCATS, 2017)
The whole screen tested about 59,000 reagents; this is a random part of them. About 1,550 of all reagents (2.6%) were called active. 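G2 share is only a proxy for re-replication; each gene was hit by three separate siRNAs, and active genes were retested.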 Unmarked entries are inactive. The numbers tell different reagents against one gene apart. Not all columns of the deposit are shown. Not stated in the record: the amount of reagent.

- Test: 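Finding genes that stop cells copying their DNA twice in one cycle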 (primary screen)
- Cell system: human HCT116 colorectal cancer cells
- Reagents: single siRNA against human genes
- Timing: 3 days
- Measurement: 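Nuclei stained with Hoechst and imaged; cell-cycle phase assigned by DNA content; G2 share scaled per plate, non-targeting siRNA 0%, GMNN siRNA 100%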
- Reading the numbers: G2 robust z-score and G2 cells, % of GMNN control: higher = more G2 cells, more excess DNA replication
- Hit rule: 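Active siRNAs have a G2 robust z of 5 or more median absolute deviations over the median, which in these data means about 38% or higher of GMNN control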

With knock-down of SMARCAD1 #1 the results were G2 robust z-score 3.47; G2 cells, % of GMNN control 27.4.
Silencing of SMARCAD1 #2 gave: G2 robust z-score 0.479; G2 cells, % of GMNN control 6.34.
Against SMARCAD1 #3, the entry reads G2 robust z-score -0.177; G2 cells, % of GMNN control 1.72.
TRIM47 #1 gave G2 robust z-score -0.583; G2 cells, % of GMNN control -1.14.
Depletion of TRIM47 #2 gave: G2 robust z-score -0.345; G2 cells, % of GMNN control 0.541.
TRIM47 #3 gave G2 robust z-score -0.081; G2 cells, % of GMNN control 2.4.
After knock-down of TAAR9 #1 the results were G2 robust z-score 0.236; G2 cells, % of GMNN control 4.63.
Against TAAR9 #2 the deposit lists G2 robust z-score -0.887; G2 cells, % of GMNN control -3.27.
After knock-down of TAAR9 #3, the record shows G2 robust z-score 0.237; G2 cells, % of GMNN control 4.63.
Knock-down of GPR176 #1 resulted in: G2 robust z-score -1.2; G2 cells, % of GMNN control -5.48.
Against GPR176 #2 the deposit lists G2 robust z-score -0.954; G2 cells, % of GMNN control -3.75.
GPR176 #3 scored G2 robust z-score -0.858; G2 cells, % of GMNN control -3.07.
Against GAD2 #1, the values are G2 robust z-score -0.493; G2 cells, % of GMNN control -0.504.
For GAD2 #2 the deposit lists G2 robust z-score -0.00378; G2 cells, % of GMNN control 2.94.
GAD2 #3 showed G2 robust z-score -0.197; G2 cells, % of GMNN control 1.58.
Against USP32P2 #1, the values are G2 robust z-score 0.155; G2 cells, % of GMNN control 4.05.
Depletion of USP32P2 #2 came out at: G2 robust z-score 1.83; G2 cells, % of GMNN control 15.8.
Depletion of USP32P2 #3 gave: G2 robust z-score 0.819; G2 cells, % of GMNN control 8.73.

Not a retest: entries from further up.
GPR176 #1 | G2 robust z-score: -1.2; G2 cells, % of GMNN control: -5.48
GPR176 #2 | G2 robust z-score: -0.954; G2 cells, % of GMNN control: -3.75
GPR176 #3 | G2 robust z-score: -0.858; G2 cells, % of GMNN control: -3.07

More results follow.
After knock-down of CIROZ #1 the results were G2 robust z-score -0.549; G2 cells, % of GMNN control -0.892.
Against CIROZ #2, the values are G2 robust z-score 0.429; G2 cells, % of GMNN control 5.98.
Knock-down of CIROZ #3 came out at: G2 robust z-score -0.0668; G2 cells, % of GMNN control 2.5.
LOC642620 (retired record) #1 showed G2 robust z-score -0.669; G2 cells, % of GMNN control -1.74.
Knock-down of LOC642620 (retired record) #2 resulted in: G2 robust z-score 2.57; G2 cells, % of GMNN control 21.1.
Knock-down of LOC642620 (retired record) #3 resulted in: G2 robust z-score -0.276; G2 cells, % of GMNN control 1.03.
After knock-down of LOC642620 (retired record) #4, the record shows G2 robust z-score 2.06; G2 cells, % of GMNN control 17.4.
After knock-down of LOC642620 (retired record) #5, the screen gave G2 robust z-score 0.983; G2 cells, % of GMNN control 9.88.
For LOC642620 (retired record) #6, the values are G2 robust z-score -0.526; G2 cells, % of GMNN control -0.732.
